Reference: PubChem BioAssay AID602196 (INSERM, 2012)
This is a random part of about 23,000 reagents tested. Of all reagents, 455 (2%) got an active call. 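Active includes both protection and sensitisation; some change values fall well beyond the stated -50 to +50 range.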 The numbers tell different reagents against one gene apart. Further read-outs or replicates are left out here. Not stated in the record: the amount of reagent.

Screen: 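Knock-downs that protect lung cancer cells from cisplatin or sensitise them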
Cells: human A549 lung cancer cells
Reagents: siRNA pair against human genes
Duration: 48 h transfection before cisplatin; time from cisplatin to read-out not stated
Challenge: cisplatin at a dose killing half of control-siRNA cells; exact dose and duration not given
Read-out: 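Shift in cisplatin death relative to control siRNA, from -50 (all cells die) to +50 (no cells die); siRNAs harmful on their own scored 0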
Direction: two-siRNA summed score (-2 to +2): higher = both siRNAs protect from cisplatin killing; -2 means both sensitise
Rule for the call: 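siRNAs harmful alone (LDH or WST-1) get 0; others get +1 for less and -1 for more cisplatin killing; genes are active when the two siRNAs give the same sign, summing to ±2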
Meaning of the calls: active = both siRNAs shift cisplatin killing the same way; inactive = no consistent shift, or siRNA harmful alone

two-siRNA summed score (-2 to +2) | call | gene symbol | reagent no.
-1 | inactive | LOC441363 | 1
-1 | inactive | UTP6 | 1
0 | inactive | LOC392617 | 1
0 | inactive | HLA-F-AS1 | 1
0 | inactive | RPL23AP82 | 1
0 | inactive | PLEKHH2 | 1
0 | inactive | TSEN2 | 1
0 | inactive | RPA3P1 | 1
0 | inactive | CYP4F3 | 1
1 | inactive | DEFB127 | 1
-1 | inactive | RDX | 1
-1 | inactive | LOC441927 | 1
1 | inactive | ALDH7A1 | 1
0 | inactive | ZNF124 | 1
0 | inactive | SATB2 | 1
1 | inactive | DCAF12L1 | 1
0 | inactive | ZCCHC9 | 1
0 | inactive | NABP2 | 1
0 | inactive | SLC15A4 | 1
-1 | inactive | NMNAT2 | 1
0 | inactive | LOC200226 | 1
1 | inactive | LOC388917 | 1
0 | inactive | JKAMP | 1
1 | inactive | LOC440722 | 1
0 | inactive | OR3A4P | 1
0 | inactive | PHOSPHO2 | 1
0 | inactive | GATA3 | 1
1 | inactive | IL10RA | 1
0 | inactive | ELAVL1 | 1
0 | inactive | TBC1D8B | 1
0 | inactive | PRIMA1 | 1
0 | inactive | RAB6B | 1
0 | inactive | ACSL5 | 1
0 | inactive | UBA52 | 1
0 | inactive | LOC399961 | 1
0 | inactive | MRPL18 | 1
0 | inactive | PODXL | 1
0 | inactive | PODXL | 2
1 | inactive | LOC392222 | 1
0 | inactive | GRIK1 | 1
0 | inactive | LOC389232 | 1
1 | inactive | LPGAT1 | 1
0 | inactive | ZMYND19 | 1
-1 | inactive | LOC130429 | 1
0 | inactive | OR2A12 | 1
1 | inactive | PLCD3 | 1
-1 | inactive | SLC17A1 | 1
0 | inactive | LOC439979 | 1
0 | inactive | USP10 | 1
1 | inactive | CDKN1B | 1
0 | inactive | OR52B4 | 1
-1 | inactive | LOC441165 | 1
0 | inactive | LOC441931 | 1
0 | inactive | CBR1 | 1
0 | inactive | ZNF142 | 1
0 | inactive | FCAMR | 1
0 | inactive | LOC441129 | 1

Look-ups from the list:
For “call”, LPGAT1 shows inactive
Result for LOC441363 in “call”: inactive
Under “call”, LOC441931 has inactive
Under “two-siRNA summed score (-2 to +2)”, FCAMR reads 0
Under “call”, DEFB127 reads inactive
